The target of experiment [1] is Int^82N (381C), C-terminal truncation of Int^82N (Enterococcus faecalis) (UniProt Q7BP35). Kind of experiment: SEC; analytical size exclusion chromatography on Superdex 200 10/300, proteins without DNA; both purified.
Experiment [2] concerns the target Int^82N (384C), C-terminal truncation of Int^82N (Enterococcus faecalis) (UniProt Q7BP35). Described as above.
Experiment [3] concerns the target Int^82N (390C), C-terminal truncation of Int^82N (Enterococcus faecalis) (UniProt Q7BP35). Briefly: SAXS; 50 mM HEPES pH 7.5, 750 mM NaCl, 5 mM DTT, 10% glycerol; Int^82N at 1.3, 2.63, 4.8 mg/mL, 390C at 0.5, 3.2, 4.18 mg/mL; Mw by calibration with bovine serum albumin; without DNA; both purified.
For experiment [4] the target is unchanged. Kind of experiment: SEC; analytical size exclusion chromatography on Superdex 200 10/300, proteins without DNA; both purified.

These are yes or no findings as the source states them, for the method shown.

As for “Int^82N (381C), C-terminal truncation of Int^82N (from UniProt Q7BP35 82-381) (domain or fragment)”, the binding entry in experiment [1] is reported as “no binding”. Regarding “Int^82N (384C), C-terminal truncation of Int^82N (from UniProt Q7BP35 82-384) (domain or fragment)”, the binding entry in experiment [2] was “no binding”.

As for “Int^82N (390C), C-terminal truncation of Int^82N (from UniProt Q7BP35 82-390) (domain or fragment)”, the results for the binding entry in experiment [3] and in experiment [4] were “no binding (tested: 4.18 mg/mL)” and “no binding”, respectively.

The values above are taken from paper PMC5871717, “Transposase-DNA Complex Structures Reveal Mechanisms for Conjugative Transposition of Antibiotic Resistance” (Cell, 2018).
